Results as given in US11559517B2, “Promotion of epithelial repair” (Telethon Kids Institute, priority 2018, dated 2023).

Test system: pAEC from asthmatic children
Experiment: Scratch wound repair assay (wound closure), pAEC from asthmatic children
Assay type: cell-based, human
Conditions: screen at 10 μM; cohort not given
Protocol: Two in vitro scratch wound models were used. […] Wound closure was calculated through image analysis by the accompanying live-cell imaging system (Essen Bioscience, Ann Arbor, Mich., USA).
To assess in vitro wound repair kinetics, linear scratch wounds were created using a commercial monolayer wounding kit. Once confluent, cell cultures were placed in starvation media (BEGM™ without epidermal growth factor) for about 24 hours prior to wounding. At the time of wounding, cell cultures were treated with compound dilution (10 μM), DMSO vehicle (0.05% v/v) or untreated. Wound closure rates were calculated through image analysis by the accompanying live-cell imaging system (Essen Bioscience, Ann Arbor, Mich., USA).

## NS(=O)(=O)c1ccc(-n2nc(C(F)(F)F)cc2-c2ccccc2)cc1 [Compound C5, Desmethyl Celecoxib]
  promotion of pAEC repair relative to celecoxib: comparable efficacy
